Reference: PubChem BioAssay AID686938 (Drosophila RNAi Screening Center, 2013)

- Screen: 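Fly genes required for calcium entry once internal stores are emptied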 (primary screen)
- Cells: Drosophila S2R+ cells
- Reagent: long dsRNA against Drosophila genes, about 0.25 µg dsRNA per well, roughly 10,000 cells
- Timing: 5 days of knock-down before the calcium assay
- Conditions: thapsigargin (SERCA pump blocker) to empty calcium stores; entry signal taken 4 min after adding it
- Read-out: 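Duplicate raw fluo-4 intensities per well from a plate reader, at rest and four minutes after thapsigargin emptied calcium stores; entry-to-rest ratio filled for only some wells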
- Direction: calcium entry signal: higher = stronger calcium signal after store depletion; entry to resting ratio: higher = more calcium entry relative to resting level; resting calcium signal: higher = higher resting calcium signal
- Rule for the call: 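Called when the plate z-score of the entry-to-rest ratio, mean of duplicates, falls below −3; wells with low overall dye signal (Fmax z below −2) or more than five off-targets excluded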
- Meaning of the calls: active = strongly reduced calcium entry; inactive = no strong reduction
The deposit covers about 23,000 reagents; shown is a random part of those that have a named target and a result. Of all reagents, 75 (0.33%) are marked active. 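Raw plate signals without normalisation; calls rest on plate z-scores that were not deposited; ratio present for only 364 wells.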 Names joined by + are all predicted targets of the reagent. No sequences are given here. Not given: the dose of the treatment.

no.	target	amplicon	calcium entry signal, replicate 1 (fluorescence units)	calcium entry signal, replicate 2 (fluorescence units)	entry to resting ratio	resting calcium signal, replicate 1 (fluorescence units)	resting calcium signal, replicate 2 (fluorescence units)	Outcome
1	CG4502	DRSC02755	3.80e7			1.96e7		inactive
2	CG4502	DRSC23237	3.54e7	3.54e7		1.91e7	1.58e7	inactive
3	SerT (Serotonin transporter)	DRSC04655	4.73e7	5.56e7		2.51e7	2.62e7	inactive
4	asRNA:CR43426 (antisense RNA:CR43426)	DRSC11587	3.59e7	3.04e7		1.83e7	1.44e7	inactive
5	CG31917 + Tfb5	DRSC02362	4.21e7	3.80e7		1.97e7	1.77e7	inactive
6	CG31917 + Tfb5	DRSC02363	3.45e7	2.34e7		1.69e7	1.20e7	inactive
7	CG15256	DRSC01491	2.86e7	4.10e7		1.57e7	1.92e7	inactive
8	CG15256	DRSC01940	4.70e7	3.22e7		2.03e7	1.51e7	inactive
9	CG2291	DRSC06836	3.49e7	3.78e7		1.56e7	1.61e7	inactive
10	Obp99b (Odorant-binding protein 99b)	DRSC16264	4.25e7	4.56e7		2.18e7	2.13e7	inactive
11	CG30178	DRSC21911	4.00e7	3.35e7		2.45e7	1.68e7	inactive
12	PDZ-GEF (PDZ domain-containing guanine nucleotide exchange factor)	DRSC03231	3.29e7	4.26e7		1.73e7	1.91e7	inactive
13	CG32148	DRSC09338	4.15e7	4.63e7		2.01e7	2.47e7	inactive
14	ND-SGDH (NADH dehydrogenase (ubiquinone) SGDH subunit)	DRSC11102	3.73e7	3.78e7		2.03e7	1.51e7	inactive
15	Cdc27 (Cell division cycle 27)	DRSC11112	3.67e7	2.64e7		3.30e7	1.69e7	inactive
16	Pex10 (Peroxin 10)	DRSC08599	3.16e7	5.22e7		1.62e7	2.45e7	inactive
17	Pex10 (Peroxin 10)	DRSC22021	2.54e7	4.22e7		1.22e7	2.18e7	inactive
18	Lsd-2 (Lipid storage droplet-2)	DRSC20143	3.22e7	3.63e7		1.50e7	1.86e7	inactive
19	Asph (Aspartyl beta-hydroxylase)	DRSC06783	4.66e7	5.49e7		1.89e7	2.46e7	inactive
20	Asph (Aspartyl beta-hydroxylase)	DRSC07171	3.16e7	3.06e7		1.54e7	1.58e7	inactive
21	CG33109	DRSC16533	2.22e7	4.13e7		1.11e7	4.65e7	inactive
22	CR43361 (pseudo)	DRSC17206	5.42e7	4.86e7	2.1	2.54e7	2.03e7	inactive
23	CG16894	DRSC06634	5.54e7	5.06e7		2.47e7	2.42e7	inactive
24	CG16894	DRSC21785	3.33e7	4.85e7		1.79e7	2.03e7	inactive
25	Mst36Fa (Male-specific transcript 36Fa)	DRSC21564	3.34e7	3.97e7		2.09e7	1.75e7	inactive
26	Cpr49Aa (Cuticular protein 49Aa)	DRSC07197	3.48e7	4.44e7		1.77e7	2.03e7	inactive
27	mRpL4 (mitochondrial ribosomal protein L4)	DRSC03562	3.93e7			2.05e7		inactive
28	CG4714	DRSC06883	2.56e7	2.56e7		1.19e7	1.24e7	inactive
29	CG2059	DRSC18203	3.01e7	4.17e7		1.52e7	1.95e7	inactive
30	mei-S332 (meiotic from via Salaria 332)	DRSC04704	2.93e7			1.51e7		inactive
31	CG14696	DRSC14919	3.81e7	3.71e7		1.91e7	1.88e7	inactive
32	fal (falten)	DRSC11087	3.66e7	4.22e7		1.65e7	2.45e7	inactive
33	BomBc3 (Bomanin Bicipital 3)	DRSC15873	4.06e7	5.01e7		5.60e7	2.05e7	inactive
34	ND-MLRQ (NADH dehydrogenase (ubiquinone) MLRQ subunit)	DRSC11913	3.32e7	3.61e7		1.62e7	1.67e7	inactive
35	CG34109	DRSC02169	2.82e7	3.77e7		1.33e7	1.66e7	inactive
36	CG34109	DRSC02224	3.01e7	4.72e7		1.40e7	2.16e7	inactive
37	CG34109	DRSC02225	2.81e7	3.39e7		1.43e7	1.69e7	inactive
38	CG3690	DRSC18170	5.70e7	4.92e7	2.1	2.68e7	2.27e7	inactive
39	CG3690	DRSC18641	6.14e7	5.64e7	2.2	2.84e7	2.46e7	inactive
40	CG4382	DRSC02743	2.93e7	5.76e7		1.53e7	2.57e7	inactive
41	CG8157	DRSC07085	3.55e7	4.30e7		1.68e7	1.83e7	inactive
42	CG8157	DRSC21595	2.72e7	3.13e7		1.40e7	1.39e7	inactive
43	CG4820	DRSC15654	3.27e7	2.48e7		1.57e7	1.24e7	inactive
44	CG42714	DRSC08798	4.67e7	3.31e7		2.76e7	1.49e7	inactive
45	CG10413	DRSC02052	3.49e7			1.55e7		inactive
46	Traf4 (TNF-receptor-associated factor 4)	DRSC00445	2.04e7	1.92e7		1.08e7	9.02e6	inactive
47	Traf4 (TNF-receptor-associated factor 4)	DRSC00794	4.55e7			2.50e7		inactive
48	CG5662	DRSC19957	4.21e7	2.64e7		2.24e7	1.40e7	inactive
49	pins (partner of inscuteable)	DRSC17043	2.25e7	3.66e7		1.25e7	1.60e7	inactive
50	H2.0 (Homeodomain protein 2.0)	DRSC03340	3.46e7	4.58e7		1.64e7	2.23e7	inactive
51	H2.0 (Homeodomain protein 2.0)	DRSC22555	4.33e7	3.85e7		2.13e7	1.55e7	inactive
52	Fit1 (Fermitin 1)	DRSC08450	5.80e7	4.67e7		4.08e7	1.96e7	inactive
53	Rm62	DRSC12365	3.64e7	4.68e7		1.73e7	2.20e7	inactive
54	CG7465	DRSC08592	2.45e7	4.07e7		1.17e7	1.76e7	inactive
55	CG7465	DRSC22320	3.82e7	5.18e7		1.77e7	2.92e7	inactive
56	Vps25 (Vacuolar protein sorting 25)	DRSC06486	4.11e7	4.15e7		2.04e7	1.65e7	inactive
57	Vmat (Vesicular monoamine transporter)	DRSC06961	2.52e7	3.09e7		1.12e7	1.47e7	inactive
58	Vmat (Vesicular monoamine transporter)	DRSC06962	3.42e7	4.15e7		1.76e7	1.91e7	inactive
59	Vmat (Vesicular monoamine transporter)	DRSC22223	3.60e7	5.59e7		1.77e7	3.23e7	inactive

Only “resting calcium signal, replicate 1 (fluorescence units)”, for 3 of the entries above:
CG3690 [DRSC18170] = 2.68e7
CG3690 [DRSC18641] = 2.84e7
CG4382 [DRSC02743] = 1.53e7
